According to PMC10044876:
Results are given in words; binding and its absence hold for the method and conditions named. Binding can be weak; no strength is given. Tags and fused reporters may be left off the sequences shown.

Molecular target: T1, His-tagged TrxC (thioredoxin-2) (Rhodobacter capsulatus) (UniProt D5AMH1)
T1 sequence: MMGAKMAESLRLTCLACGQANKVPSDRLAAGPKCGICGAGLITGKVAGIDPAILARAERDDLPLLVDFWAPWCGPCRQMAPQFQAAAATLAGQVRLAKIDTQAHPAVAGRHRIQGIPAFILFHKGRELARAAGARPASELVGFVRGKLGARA
Assay: pull-down; His-tagged TrxC bound to Ni-NTA agarose, mixed with SqrR-FLAG (protein 5 uM), 3 h at 4 °C; 20 mM Tris-HCl pH 8.0, 500 mM NaCl, 20 mM imidazole, 10% glycerol; washed with 20 column volumes, eluted with 500 mM imidazole; eluates analysed by Western blot with anti-FLAG antibody; both purified

In the case of “Recombinant FLAG-tagged SqrR (Rhodobacter capsulatus)”, the binding is reported as “binds”.
